The subject of data set [1] is petals of carnation "Moondust Velvet Blue". The data set is described as follows: Immersion of carnation petals in candidate preservative solutions: contraction, color tone, color, shine (Example 2). As to conditions: for color of petals / shine of petal / variation in color tone: non-uniform area / contraction B / variation in color tone: after immersion not less than one day; for variation in color tone: non-uniform area: share of non-uniform area; for suitable as the preservative solution: considering the color of the petals and the like; for contraction A: contraction of petals on immersion in the organic solvent; for contraction B: contraction of petals while the organic solvent was volatilized from the petals; for variation in color tone: result in words.

Data set [2] has the same test system. Description: Immersion of carnation petals in organic solvents: replacement of tissue fluid, leach-out of pigment, contraction (Example 1). The settings on record: for contraction: contraction of petals; for contraction / replacement: immersed not less than one day; for leach-out of pigment: from amount of pigment remaining in petals, peak at around 540 nm, immersed about one day; for replacement: tissue fluid of petals replaced by the organic solvent.

In the case of `CC(CCO)CCO` [3-methyl-1,5-pentanediol], in data set [1], the color of petals result was “purple”, the shine of petal result is “yes”, the “variation in color tone: non-uniform area” value (“variation … non-uniform area” for short) was “not greater than 20%” and the “suitable as the preservative solution” value is reported as “suitable”. In data set [1], the “contraction A” value is “no” and the “contraction B” value was “no”.
For `CO` [Methanol], in data set [2], the contraction entry was “yes”, the leach-out of pigment result is “yes” and the replacement result is “yes”.
For the compound `CCO` [ethanol], in data set [2], the contraction result is given as “no”, the leach-out of pigment result is “no” and the replacement result is “yes”.
For `CC(C)O` [2-propanol], in data set [2], the contraction entry is given as “no” and the replacement result is “yes”.
In the case of `CCCCC(CC)COCCOCCO` (stereo not drawn) [2-[2-(2-ethylhexyloxy)ethoxy]ethanol], in data set [1], the color of petals result is recorded as “light purple”, the shine of petal entry is listed as “yes”, the “variation … non-uniform area” value is recorded as “not greater than 20%” and the “suitable as the preservative solution” value is “suitable”. Besides, in data set [1], the “contraction A” value is recorded as “no” and the “contraction B” value is “no”.
Take `OCC(O)CO` [glycerin]: in data set [1], the shine of petal result was “yes”, the “variation … non-uniform area” value is given as “not greater than 20%”, the “contraction A” value was “no” and the “contraction B” value is given as “no”.
In the case of `CCCC(=O)O` [n-butyric acid], in data set [2], the contraction result is “no”, the leach-out of pigment result is reported as “no” and the replacement result is listed as “yes”.
Regarding `CC(C)=O` [acetone], in data set [2], the contraction entry is “no”, the leach-out of pigment entry is on record as “no” and the replacement entry is listed as “yes”.
On to `C1COCCO1` [1,4-dioxane], for which, in data set [2], the contraction entry is recorded as “no”, the leach-out of pigment result is given as “no” and the replacement result is recorded as “yes”.
Take `CCCCC(CC)COCCO` (stereo not drawn) [2-(2-ethylhexyloxy)ethanol]: in data set [1], the color of petals entry is “purple”, the shine of petal result is “no”, the “variation … non-uniform area” value was “not greater than 20%” and the “suitable as the preservative solution” value was “suitable”. For the same compound, in data set [1], the “contraction A” value is “no” and the “contraction B” value was “no”.
As for `CCCC(O)C(CC)CO` (stereo not drawn) [2-ethyl-1,3-hexanediol], in data set [1], the color of petals entry was “dark purple”, the shine of petal entry is “yes”, the “variation in color tone” value was “uniform color tone” and the “suitable as the preservative solution” value is on record as “suitable”. Further, in data set [1], the “contraction A” value is given as “no” and the “contraction B” value is “no”.
1-propanol: in data set [2], the contraction entry is reported as “no”, the leach-out of pigment entry is recorded as “no” and the replacement result is reported as “yes”.
As to `OCCO` [ethylene glycol], in data set [1], the shine of petal entry is “yes”, the “variation … non-uniform area” value was “not greater than 20%”, the “contraction A” value was “no” and the “contraction B” value was “no”.
As to `CC(O)CC(C)(C)O` (stereo not drawn) [2-methyl-2,4-pentanediol], in data set [1], the color of petals entry was “dark purple”, the “variation in color tone” value was “uniform color tone”, the “suitable as the preservative solution” value is recorded as “suitable” and the “contraction A” value was “no”. Further, in data set [1], the “contraction B” value is reported as “no”.
